Source: patent US20090263852A1, “NONAPOPTOTIC FORMS OF CELL DEATH AND METHODS OF MODULATION” (priority 2000, published 2009)
For at least one compound, name, drawing or mass did not settle the structure.

Experiments:
[1] = test system: IGFIR-IC transfected 293T cells; assay: IGFIR-IC-induced cell death (paraptosis) in transfected 293T cells, trypan blue exclusion; type: cell-based; details: Table 1; 293T cell death induced by IGFIR-IC
Procedure: Transient transfections used Lipofect-Amine (GIBCO, BRL, Rockville, Md.) according to the manufacturer's instructions. Briefly, 1×10^6 293T cells were seeded in 6 cm dishes, and transfected the next day using a ratio of DNA:Lipofect-Amine of 1 μg:5 μl.
Following expression of the IGIFR-IC constructs, the cell cultures were assayed for cell death. Cell death was assessed by trypan blue exclusion. Floating cells were collected at the indicated times after transfection, by centrifugation for 10 minutes at 1500 rpm. The cell pellet was subsequently resuspended in 50 μl of PBS, to which 50 μl of trypan blue was added. Dead cells were counted by 4 independent hemocytometer counts. […]
To assess IGFIR-induced cell death following treatment with Actinomycin D and cycloheximide, both drugs were obtained form Sigma and added to IGFIR-IC transfected 293T cells. […] Floating cells were collected 24 hrs after the removal of the drugs and dead cells were counted in the presence of trypan blue.
To assess whether caspase-9 has a functional role in IGFIR-induced cell death 293T cells were transfected with 2 μg of DNA consisting of either pcDNA3, 0.5 μg pIGFIR-IC+1.5 μg pcDNA3 (Invitrogen, Carlsbad, Calif.), or 0.5 μg pIGFIR-IC+1.5 μg dominant negative caspase-9 (pC9DN) or dominant negative caspase-7 (pC7DN) expression constructs. 48 hours after transfection, dead cells were counted.

Apoptosis = details: Table 1, Comparison of Apoptosis, Necrosis and Paraptosis; cited from earlier work
Necrosis = details: Table 1, Comparison of Apoptosis, Necrosis and Paraptosis; cited from earlier work

COC(=O)C[C@H](NC(=O)OC(C)(C)C)C(=O)CF [BAF, t-butyloxycarbonyl-Asp (O-methyl)-fluoromethyl ketone]
Inhibition by: Paraptosis [1]: −
Inhibition by: Apoptosis (Apoptosis): +
Inhibition by: Necrosis (Necrosis): −
